From the supplement of paper PMC10849652
The list shows a part of the results.

The chains behind the UniProt entries cited, without tags or fusion partners. Where a name states a change or a piece, a line headed by the entry shows the natural chain unless it says otherwise.
UniProt Q9BR76, whole entry, looked up: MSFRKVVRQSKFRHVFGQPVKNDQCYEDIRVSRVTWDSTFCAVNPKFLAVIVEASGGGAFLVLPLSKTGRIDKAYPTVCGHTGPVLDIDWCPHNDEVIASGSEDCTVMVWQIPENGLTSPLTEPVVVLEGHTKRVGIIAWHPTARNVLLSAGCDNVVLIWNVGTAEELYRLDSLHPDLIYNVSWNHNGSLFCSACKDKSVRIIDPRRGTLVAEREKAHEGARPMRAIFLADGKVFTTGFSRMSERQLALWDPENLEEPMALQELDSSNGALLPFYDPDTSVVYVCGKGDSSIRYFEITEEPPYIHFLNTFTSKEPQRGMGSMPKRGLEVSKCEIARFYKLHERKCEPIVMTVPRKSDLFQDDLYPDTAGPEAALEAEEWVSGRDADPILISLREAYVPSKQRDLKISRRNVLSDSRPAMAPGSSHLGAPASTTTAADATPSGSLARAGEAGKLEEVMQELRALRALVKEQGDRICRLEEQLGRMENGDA
UniProt P16220: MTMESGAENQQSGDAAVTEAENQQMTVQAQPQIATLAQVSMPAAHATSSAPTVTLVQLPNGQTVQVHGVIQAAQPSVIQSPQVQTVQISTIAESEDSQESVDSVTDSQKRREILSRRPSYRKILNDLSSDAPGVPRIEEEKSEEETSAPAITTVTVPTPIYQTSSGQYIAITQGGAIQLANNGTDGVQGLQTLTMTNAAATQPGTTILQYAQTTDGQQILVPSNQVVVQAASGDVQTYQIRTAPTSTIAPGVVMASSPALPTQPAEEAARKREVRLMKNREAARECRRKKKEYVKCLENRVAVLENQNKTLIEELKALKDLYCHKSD
UniProt P31146: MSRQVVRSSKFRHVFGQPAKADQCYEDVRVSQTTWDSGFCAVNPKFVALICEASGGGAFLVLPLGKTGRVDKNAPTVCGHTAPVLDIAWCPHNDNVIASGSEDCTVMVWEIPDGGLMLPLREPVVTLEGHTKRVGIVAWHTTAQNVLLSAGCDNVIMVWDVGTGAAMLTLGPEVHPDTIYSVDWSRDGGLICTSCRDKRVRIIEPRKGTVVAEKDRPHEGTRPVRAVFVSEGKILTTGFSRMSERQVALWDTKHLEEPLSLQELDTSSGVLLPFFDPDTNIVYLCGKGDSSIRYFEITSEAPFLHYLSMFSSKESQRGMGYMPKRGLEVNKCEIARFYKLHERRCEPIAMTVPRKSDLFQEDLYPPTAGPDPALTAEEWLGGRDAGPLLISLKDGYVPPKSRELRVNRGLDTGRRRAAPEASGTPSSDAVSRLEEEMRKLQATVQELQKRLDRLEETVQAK
UniProt Q92905, whole entry, looked up: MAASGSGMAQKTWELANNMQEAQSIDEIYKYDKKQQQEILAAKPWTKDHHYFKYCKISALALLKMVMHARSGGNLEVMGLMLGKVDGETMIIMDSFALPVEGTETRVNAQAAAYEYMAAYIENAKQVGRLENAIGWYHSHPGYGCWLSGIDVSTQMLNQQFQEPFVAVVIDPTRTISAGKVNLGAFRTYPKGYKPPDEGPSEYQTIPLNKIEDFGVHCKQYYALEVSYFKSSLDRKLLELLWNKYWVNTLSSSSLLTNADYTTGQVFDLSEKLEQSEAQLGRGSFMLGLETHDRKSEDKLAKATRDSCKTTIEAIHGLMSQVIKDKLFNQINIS
UniProt Q8N8Q8: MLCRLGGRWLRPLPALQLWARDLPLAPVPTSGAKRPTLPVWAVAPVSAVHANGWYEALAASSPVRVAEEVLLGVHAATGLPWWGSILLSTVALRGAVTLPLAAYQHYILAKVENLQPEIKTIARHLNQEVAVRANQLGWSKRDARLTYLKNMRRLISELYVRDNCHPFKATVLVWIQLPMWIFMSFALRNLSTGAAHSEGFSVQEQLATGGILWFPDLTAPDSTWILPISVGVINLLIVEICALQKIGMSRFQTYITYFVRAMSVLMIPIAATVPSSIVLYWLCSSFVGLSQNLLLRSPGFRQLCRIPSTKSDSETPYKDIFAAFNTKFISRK
UniProt Q14019: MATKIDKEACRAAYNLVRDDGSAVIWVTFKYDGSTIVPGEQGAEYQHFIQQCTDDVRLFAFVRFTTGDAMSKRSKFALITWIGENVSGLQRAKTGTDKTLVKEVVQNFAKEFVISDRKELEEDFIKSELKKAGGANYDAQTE
UniProt Q8NI60: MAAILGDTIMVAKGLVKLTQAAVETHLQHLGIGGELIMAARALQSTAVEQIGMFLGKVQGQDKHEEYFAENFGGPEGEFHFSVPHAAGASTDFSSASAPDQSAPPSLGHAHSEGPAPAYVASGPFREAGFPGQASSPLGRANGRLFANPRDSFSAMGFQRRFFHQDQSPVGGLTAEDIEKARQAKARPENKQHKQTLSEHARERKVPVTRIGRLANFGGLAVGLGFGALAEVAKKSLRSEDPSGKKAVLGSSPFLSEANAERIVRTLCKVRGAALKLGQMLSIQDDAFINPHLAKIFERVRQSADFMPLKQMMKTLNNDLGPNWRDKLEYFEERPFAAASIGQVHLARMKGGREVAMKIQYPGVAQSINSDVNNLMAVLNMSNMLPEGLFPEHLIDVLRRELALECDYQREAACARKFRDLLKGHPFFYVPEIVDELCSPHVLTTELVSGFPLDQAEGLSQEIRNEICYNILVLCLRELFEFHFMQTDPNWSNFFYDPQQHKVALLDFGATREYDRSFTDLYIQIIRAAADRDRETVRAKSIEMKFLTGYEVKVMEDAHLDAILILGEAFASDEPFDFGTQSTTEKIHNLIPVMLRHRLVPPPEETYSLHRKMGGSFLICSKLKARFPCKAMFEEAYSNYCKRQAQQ
UniProt O14548: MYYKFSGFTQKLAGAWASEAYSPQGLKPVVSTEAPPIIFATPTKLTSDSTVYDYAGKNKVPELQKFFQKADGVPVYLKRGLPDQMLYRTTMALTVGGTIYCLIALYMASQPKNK
UniProt O95825: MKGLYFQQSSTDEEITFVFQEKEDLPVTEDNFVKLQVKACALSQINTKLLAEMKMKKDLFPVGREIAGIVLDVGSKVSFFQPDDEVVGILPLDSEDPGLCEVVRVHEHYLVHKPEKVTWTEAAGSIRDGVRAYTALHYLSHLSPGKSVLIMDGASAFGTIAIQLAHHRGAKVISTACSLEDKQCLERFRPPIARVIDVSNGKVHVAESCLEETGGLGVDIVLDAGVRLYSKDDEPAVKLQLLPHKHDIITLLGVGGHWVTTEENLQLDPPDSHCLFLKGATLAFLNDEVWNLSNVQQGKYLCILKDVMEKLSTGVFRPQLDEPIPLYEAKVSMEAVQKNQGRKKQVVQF
UniProt A4D0V7: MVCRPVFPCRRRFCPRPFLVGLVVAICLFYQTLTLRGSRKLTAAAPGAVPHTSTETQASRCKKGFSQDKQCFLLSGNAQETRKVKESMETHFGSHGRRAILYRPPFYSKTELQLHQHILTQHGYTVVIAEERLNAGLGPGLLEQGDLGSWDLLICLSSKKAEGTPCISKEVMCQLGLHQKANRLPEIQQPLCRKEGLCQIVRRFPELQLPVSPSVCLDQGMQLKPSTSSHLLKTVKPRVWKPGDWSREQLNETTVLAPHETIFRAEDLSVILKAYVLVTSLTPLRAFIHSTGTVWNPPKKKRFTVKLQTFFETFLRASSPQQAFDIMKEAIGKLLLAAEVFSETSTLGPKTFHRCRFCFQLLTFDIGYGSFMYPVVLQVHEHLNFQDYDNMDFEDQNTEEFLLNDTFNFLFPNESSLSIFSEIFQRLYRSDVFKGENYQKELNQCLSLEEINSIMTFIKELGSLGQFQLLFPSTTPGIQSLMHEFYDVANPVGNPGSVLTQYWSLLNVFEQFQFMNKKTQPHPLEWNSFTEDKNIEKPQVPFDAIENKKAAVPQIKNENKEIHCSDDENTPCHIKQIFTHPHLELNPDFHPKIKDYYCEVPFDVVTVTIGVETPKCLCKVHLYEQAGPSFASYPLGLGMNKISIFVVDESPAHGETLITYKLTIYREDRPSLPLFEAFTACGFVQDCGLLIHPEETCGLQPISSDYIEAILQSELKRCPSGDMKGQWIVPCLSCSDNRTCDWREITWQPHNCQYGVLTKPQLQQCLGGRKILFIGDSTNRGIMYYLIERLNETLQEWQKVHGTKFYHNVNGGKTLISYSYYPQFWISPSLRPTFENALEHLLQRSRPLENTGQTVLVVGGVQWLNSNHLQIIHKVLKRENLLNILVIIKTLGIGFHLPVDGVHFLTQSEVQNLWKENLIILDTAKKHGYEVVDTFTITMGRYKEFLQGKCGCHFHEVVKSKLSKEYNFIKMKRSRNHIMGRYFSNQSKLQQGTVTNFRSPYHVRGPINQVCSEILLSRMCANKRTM
UniProt Q86VX2, whole entry, looked up: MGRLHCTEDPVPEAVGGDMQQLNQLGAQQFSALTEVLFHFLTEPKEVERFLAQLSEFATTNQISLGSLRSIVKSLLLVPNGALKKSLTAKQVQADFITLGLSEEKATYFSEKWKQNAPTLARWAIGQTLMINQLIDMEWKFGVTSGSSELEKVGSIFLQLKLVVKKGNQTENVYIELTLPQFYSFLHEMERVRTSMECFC
UniProt Q9NQ92: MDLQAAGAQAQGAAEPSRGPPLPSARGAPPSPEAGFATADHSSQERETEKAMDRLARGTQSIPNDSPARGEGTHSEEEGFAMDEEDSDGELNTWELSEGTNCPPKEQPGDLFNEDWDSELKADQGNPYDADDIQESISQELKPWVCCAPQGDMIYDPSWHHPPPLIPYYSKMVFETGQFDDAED
UniProt Q96HD1: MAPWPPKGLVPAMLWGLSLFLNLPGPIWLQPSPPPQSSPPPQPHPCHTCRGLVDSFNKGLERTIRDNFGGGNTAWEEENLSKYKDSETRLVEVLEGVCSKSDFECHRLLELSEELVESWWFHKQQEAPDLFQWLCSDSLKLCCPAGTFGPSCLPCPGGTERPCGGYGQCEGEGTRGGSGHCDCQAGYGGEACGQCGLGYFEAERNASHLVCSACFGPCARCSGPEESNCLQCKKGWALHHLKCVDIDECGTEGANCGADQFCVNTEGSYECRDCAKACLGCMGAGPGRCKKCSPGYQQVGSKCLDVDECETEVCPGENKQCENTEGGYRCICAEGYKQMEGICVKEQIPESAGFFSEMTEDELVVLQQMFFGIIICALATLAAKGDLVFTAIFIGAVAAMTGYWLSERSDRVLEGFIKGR
UniProt Q9NZJ6: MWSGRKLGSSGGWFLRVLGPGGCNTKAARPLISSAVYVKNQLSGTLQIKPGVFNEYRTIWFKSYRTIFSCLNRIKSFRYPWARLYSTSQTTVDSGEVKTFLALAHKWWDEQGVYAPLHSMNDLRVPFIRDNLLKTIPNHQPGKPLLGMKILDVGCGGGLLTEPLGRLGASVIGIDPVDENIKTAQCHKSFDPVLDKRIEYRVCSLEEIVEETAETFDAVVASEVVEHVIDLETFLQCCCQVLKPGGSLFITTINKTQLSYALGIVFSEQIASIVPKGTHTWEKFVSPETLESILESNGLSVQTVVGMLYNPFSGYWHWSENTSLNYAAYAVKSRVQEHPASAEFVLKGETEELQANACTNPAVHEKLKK
UniProt O75534: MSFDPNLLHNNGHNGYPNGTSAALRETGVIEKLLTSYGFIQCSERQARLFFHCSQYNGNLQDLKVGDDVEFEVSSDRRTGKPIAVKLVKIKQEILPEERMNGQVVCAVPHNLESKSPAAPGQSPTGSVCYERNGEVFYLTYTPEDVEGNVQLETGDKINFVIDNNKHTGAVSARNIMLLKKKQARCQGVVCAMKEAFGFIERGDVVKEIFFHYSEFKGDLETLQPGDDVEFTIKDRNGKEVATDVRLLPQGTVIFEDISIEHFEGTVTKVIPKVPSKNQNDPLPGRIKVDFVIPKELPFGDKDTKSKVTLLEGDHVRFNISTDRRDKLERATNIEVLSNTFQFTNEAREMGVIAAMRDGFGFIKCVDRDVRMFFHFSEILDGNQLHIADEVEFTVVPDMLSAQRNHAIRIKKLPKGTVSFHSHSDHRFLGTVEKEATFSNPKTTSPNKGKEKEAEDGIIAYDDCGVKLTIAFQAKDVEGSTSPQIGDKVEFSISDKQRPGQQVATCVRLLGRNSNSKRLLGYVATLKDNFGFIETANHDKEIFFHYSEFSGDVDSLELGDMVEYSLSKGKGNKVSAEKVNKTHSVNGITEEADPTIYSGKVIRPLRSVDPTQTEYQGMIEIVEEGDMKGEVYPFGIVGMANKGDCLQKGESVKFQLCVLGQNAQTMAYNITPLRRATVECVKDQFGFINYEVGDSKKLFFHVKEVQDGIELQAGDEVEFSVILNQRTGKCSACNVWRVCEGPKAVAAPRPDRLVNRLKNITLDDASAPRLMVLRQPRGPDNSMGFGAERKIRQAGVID
UniProt Q9UBW8: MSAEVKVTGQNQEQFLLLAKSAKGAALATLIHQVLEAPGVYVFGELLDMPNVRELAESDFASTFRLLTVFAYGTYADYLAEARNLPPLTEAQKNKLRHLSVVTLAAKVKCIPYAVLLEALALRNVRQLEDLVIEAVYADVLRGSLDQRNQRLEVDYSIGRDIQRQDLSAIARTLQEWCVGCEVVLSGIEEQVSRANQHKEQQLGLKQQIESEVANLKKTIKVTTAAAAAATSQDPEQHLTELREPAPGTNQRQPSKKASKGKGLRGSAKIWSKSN

Tests used:
Experiment in all cases: log2 fold change, soluble protein after heating vs DMSO (PISA); higher = thermal stabilisation; K562 cells, 10 uM, 30 min; active = over 0.2 and 3.5 SD of the protein, either way, in both replicates (recomputed)
[1] = compound: CS(=O)(=O)c1ccc(-c2cnc(N)c(C(=O)Nc3ccccc3)n2)cc1
In short: (§1)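 Values are thermal stability changes relative to control samples and are taken from duplicates. They are stated as log2 fold changes. Before quantification by TMTpro 16plex LC-MS/MS with equalised channel sums, K562 cells at 2×10^6 cells/mL were treated with 10 μM compound for 30 min, heated in aliquots for 3 min across 48°C-58°C, pooled, extracted in PBS with 0.5% NP-40 at 4°C, and centrifuged at 21,000xg for 90 min to give the soluble supernatant.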

crizotinib = compound: C[C@@H](Oc1cc(-c2cnn(C3CCNCC3)c2)cnc1N)c1c(Cl)ccc(F)c1Cl [crizotinib]
In short: as §1

[2] = compound: C[C@@H]1COCCN1C2=NC(=NC(=C2)C3(CC3)S(=O)(=O)C)C4=C5C=CNC5=CC=C4
In short: as §1

[3] = compound: C[C@H](C1=CC=C(C=C1)C(=O)NC2=C3C=CNC3=NC=C2)N
In short: as §1

duvelisib = compound: C[C@H](Nc1ncnc2nc[nH]c12)c1cc2cccc(Cl)c2c(=O)n1-c1ccccc1 [duvelisib]
In short: as §1

gandotinib = compound: Cc1cc(Nc2cc(CN3CCOCC3)c3nc(C)c(Cc4ccc(Cl)cc4F)n3n2)n[nH]1 [gandotinib]
In short: as §1

tozasertib = compound: Cc1cc(Nc2cc(N3CCN(C)CC3)nc(Sc3ccc(NC(=O)C4CC4)cc3)n2)n[nH]1 [tozasertib]
In short: as §1

[4] = compound: Cc1cc(SCc2sc(-c3ccc(C(F)(F)F)cc3)nc2C)ccc1OCC(=O)O
In short: as §1

doramapimod = compound: Cc1ccc(-n2nc(C(C)(C)C)cc2NC(=O)Nc2ccc(OCCN3CCOCC3)c3ccccc23)cc1 [doramapimod]
In short: as §1

ispinesib = compound: Cc1ccc(C(=O)N(CCCN)[C@@H](c2nc3cc(Cl)ccc3c(=O)n2Cc2ccccc2)C(C)C)cc1 [ispinesib]
In short: as §1

bafetinib = compound: Cc1ccc(NC(=O)c2ccc(CN3CC[C@H](N(C)C)C3)c(C(F)(F)F)c2)cc1Nc1nccc(-c2cncnc2)n1 [bafetinib]
In short: as §1

[5] = compound: Cc1cccc(CC(=O)N2CCc3c2ccc(-c2cn(C)c4ncnc(N)c24)c3F)n1
In short: as §1

nilotinib = compound: Cc1cn(-c2cc(NC(=O)c3ccc(C)c(Nc4nccc(-c5cccnc5)n4)c3)cc(C(F)(F)F)c2)cn1 [nilotinib]
In short: as §1

[6] = compound: Cc1nc(Nc2n[nH]c3c2CN(C(=O)N[C@H](CN(C)C)c2ccccc2)C3(C)C)c2sccc2n1
In short: as §1

dasatinib = compound: Cc1nc(Nc2ncc(C(=O)Nc3c(C)cccc3Cl)s2)cc(N2CCN(CCO)CC2)n1 [dasatinib]
In short: as §1

[7] = compound: Cc1ncc(-c2ccnc(Nc3ccc(S(C)(=O)=O)cc3)n2)n1C(C)C
In short: as §1

[8] = compound: Cn1cc(-c2ccc3c(c2)CCN3C(=O)Cc2cccc(C(F)(F)F)c2)c2c(N)ncnc21
In short: as §1

[9] = compound: Cn1cc(-c2ccc3nnc(C(F)(F)c4ccc5ncccc5c4)n3n2)cn1
In short: as §1

tipifarnib = compound: Cn1cncc1[C@@](N)(c1ccc(Cl)cc1)c1ccc2c(c1)c(-c1cccc(Cl)c1)cc(=O)n2C [tipifarnib]
In short: as §1

mubritinib = compound: FC(F)(F)c1ccc(/C=C/c2nc(COc3ccc(CCCCn4ccnn4)cc3)co2)cc1 [mubritinib]
In short: as §1

Measured: log2 fold change

CORO1B (UniProt Q9BR76)
inactive: [1] 0.027 | crizotinib 0.002 | [2] 0.079 | [3] -0.084 | duvelisib 0.025 | gandotinib -0.03 | tozasertib 0.014 | [4] 0.037 | doramapimod -0.022 | ispinesib 0.047 | bafetinib 0.033 | [5] 0.037 | nilotinib -0.017 | [6] -0.02 | dasatinib -0.031 | [7] -0.005 | [8] 0.108 | [9] -0.014 | tipifarnib -0.009 | mubritinib 0.049

CREB1 (UniProt P16220)
inactive: [1] 0.023 | crizotinib 0.101 | [2] 0.001 | [3] -0.088 | duvelisib 0.061 | gandotinib 0.058 | tozasertib -0.02 | [4] -0.121 | doramapimod -0.005 | ispinesib -0.015 | bafetinib -0.019 | [5] 0.016 | nilotinib -0.006 | [6] -0.022 | dasatinib 0.016 | [7] 0 | [8] 0.061 | [9] -0.01 | tipifarnib 0.025 | mubritinib -0.029

CORO1A (UniProt P31146)
inactive: [1] 0.035 | crizotinib -0.051 | [2] 0.016 | [3] -0.055 | duvelisib 0.02 | gandotinib -0.139 | tozasertib 0.064 | [4] 0.02 | doramapimod 0.015 | ispinesib -0.082 | bafetinib 0.014 | [5] -0.04 | nilotinib -0.012 | [6] -0.092 | dasatinib -0.084 | [7] 0.051 | [8] 0.196 | [9] 0.001 | tipifarnib 0.002 | mubritinib 0.076

COPS5 (UniProt Q92905)
inactive: [1] -0.031 | crizotinib -0.001 | [2] 0.026 | [3] -0.05 | duvelisib 0.009 | gandotinib -0.065 | tozasertib 0.011 | [4] -0.007 | doramapimod -0.018 | ispinesib 0.047 | bafetinib 0.024 | [5] 0.004 | nilotinib 0.008 | [6] -0.013 | dasatinib -0.013 | [7] -0.009 | [8] 0.061 | [9] -0.007 | tipifarnib -0.021 | mubritinib 0.049

COX18 (UniProt Q8N8Q8)
inactive: [1] 0.015 | crizotinib -0.06 | [2] 0.037 | [3] -0.016 | duvelisib 0.05 | gandotinib -0.016 | tozasertib -0.01 | [4] -0.008 | doramapimod -0.05 | ispinesib -0.048 | bafetinib -0.089 | [5] -0.053 | nilotinib -0.025 | [6] 0.005 | dasatinib -0.011 | [7] -0.063 | [8] 0.082 | [9] 0.028 | tipifarnib 0.056 | mubritinib 0.055

COTL1 (UniProt Q14019)
inactive: [1] 0.033 | crizotinib -0.001 | [2] 0.064 | [3] -0.114 | duvelisib -0.009 | gandotinib -0.089 | tozasertib 0.053 | [4] -0.025 | doramapimod 0.012 | ispinesib 0.109 | bafetinib -0.001 | [5] 0.035 | nilotinib -0.004 | [6] -0.033 | dasatinib 0.003 | [7] -0.001 | [8] -0.009 | [9] 0.014 | tipifarnib -0.072 | mubritinib 0.044

COQ8A (UniProt Q8NI60)
inactive: [1] 0.024 | crizotinib -0.031 | [2] 0.033 | [3] -0.019 | duvelisib 0.04 | gandotinib 0.058 | tozasertib 0.01 | [4] 0.028 | doramapimod -0.006 | ispinesib 0.055 | bafetinib -0.088 | [5] -0.006 | nilotinib -0.055 | [6] 0.108 | dasatinib -0.244 | [7] -0.04 | [8] 0.069 | [9] -0.047 | tipifarnib -0.103 | mubritinib 0.023

COX7A2L (UniProt O14548)
inactive: [1] 0.037 | crizotinib 0.024 | [2] 0.095 | [3] -0.034 | duvelisib 0.105 | gandotinib 0.008 | tozasertib 0.011 | [4] -0.032 | doramapimod -0.001 | ispinesib 0.017 | bafetinib -0.028 | [5] -0.027 | nilotinib 0.019 | [6] -0.001 | dasatinib 0.083 | [7] -0.034 | [8] 0.089 | [9] 0.184 | tipifarnib -0.073 | mubritinib 0.019

CRYZL1 (UniProt O95825)
inactive: [1] -0.047 | crizotinib 0.042 | [2] 0.038 | [3] -0.02 | duvelisib 0.027 | gandotinib 0.005 | tozasertib -0.022 | [4] -0.03 | doramapimod -0.026 | ispinesib 0.065 | bafetinib -0.052 | [5] -0.019 | nilotinib 0.001 | [6] 0.02 | dasatinib 0.015 | [7] -0.016 | [8] 0.009 | [9] -0.003 | tipifarnib 0.007 | mubritinib 0.022

CPED1 (UniProt A4D0V7)
inactive: [1] 0.023 | crizotinib 0.034 | [2] -0.137 | [3] 0.113 | duvelisib -0.003 | gandotinib 0.072 | tozasertib 0.013 | [4] -0.004 | doramapimod 0.081 | ispinesib -0.083 | bafetinib 0.045 | [5] -0.036 | nilotinib -0.052 | [6] -0.058 | dasatinib -0.006 | [7] 0.032 | [8] -0.118 | [9] 0.04 | tipifarnib 0.096 | mubritinib 0.041

COMMD7 (UniProt Q86VX2)
inactive: [1] 0.05 | crizotinib -0.067 | [2] -0.104 | [3] -0.085 | duvelisib 0.093 | gandotinib 0.042 | tozasertib 0.038 | [4] -0.017 | doramapimod 0.025 | ispinesib -0.045 | bafetinib -0.075 | [5] -0.016 | nilotinib 0.026 | [6] 0.021 | dasatinib 0.065 | [7] 0.05 | [8] -0.008 | [9] -0.036 | tipifarnib -0.045 | mubritinib 0.045

Pulled one by one from the list above, 2 records:
CORO1B (UniProt Q9BR76)
inactive: [1] 0.027 | crizotinib 0.002 | [2] 0.079 | [3] -0.084 | duvelisib 0.025 | gandotinib -0.03 | tozasertib 0.014 | [4] 0.037 | doramapimod -0.022 | ispinesib 0.047 | bafetinib 0.033 | [5] 0.037 | nilotinib -0.017 | [6] -0.02 | dasatinib -0.031 | [7] -0.005 | [8] 0.108 | [9] -0.014 | tipifarnib -0.009 | mubritinib 0.049

COQ8A (UniProt Q8NI60)
inactive: [1] 0.024 | crizotinib -0.031 | [2] 0.033 | [3] -0.019 | duvelisib 0.04 | gandotinib 0.058 | tozasertib 0.01 | [4] 0.028 | doramapimod -0.006 | ispinesib 0.055 | bafetinib -0.088 | [5] -0.006 | nilotinib -0.055 | [6] 0.108 | dasatinib -0.244 | [7] -0.04 | [8] 0.069 | [9] -0.047 | tipifarnib -0.103 | mubritinib 0.023

(list continues)

COPRS (UniProt Q9NQ92)
inactive: [1] -0.066 | crizotinib 0.03 | [2] 0.017 | [3] -0.026 | duvelisib 0.102 | gandotinib -0.045 | tozasertib -0.011 | [4] 0.043 | doramapimod 0.072 | ispinesib 0.004 | bafetinib -0.008 | [5] -0.051 | nilotinib -0.013 | [6] 0.009 | dasatinib 0.089 | [7] -0.005 | [8] 0.078 | [9] -0.041 | tipifarnib 0 | mubritinib 0.048

CRELD1 isoform 2 (UniProt Q96HD1)
inactive: [1] 0.259 | crizotinib -0.064 | [2] 0.151 | [3] 0.168 | duvelisib 0.101 | gandotinib -0.072 | tozasertib -0.155 | [4] 0.05 | doramapimod 0.013 | ispinesib -0.352 | bafetinib 0.047 | [5] -0.065 | nilotinib -0.298 | [6] -0.001 | dasatinib 0.052 | [7] 0.051 | [8] -0.023 | [9] 0.347 | tipifarnib 0.123 | mubritinib 0.026

COQ3 (UniProt Q9NZJ6)
inactive: [1] 0.034 | crizotinib -0.206 | [2] 0.072 | [3] -0.069 | duvelisib -0.113 | gandotinib 0.038 | tozasertib 0.08 | [4] 0.026 | doramapimod 0.051 | ispinesib -0.016 | bafetinib -0.042 | [5] -0.021 | nilotinib -0.025 | [6] -0.001 | dasatinib 0.014 | [7] -0.092 | [8] -0.057 | [9] -0.106 | tipifarnib 0.019 | mubritinib 0.078

CSDE1 isoform 4 (UniProt O75534)
inactive: [1] -0.001 | crizotinib -0.101 | [2] -0.199 | [3] 0.321 | duvelisib -0.073 | gandotinib 0.058 | tozasertib 0.071 | [4] 0.128 | doramapimod 0.158 | ispinesib -0.306 | bafetinib 0.133 | [5] 0.051 | nilotinib -0.11 | [6] -0.176 | dasatinib -0.013 | [7] -0.025 | [8] -0.097 | [9] -0.15 | tipifarnib -0.023 | mubritinib -0.198

COPS7A (UniProt Q9UBW8)
inactive: [1] 0.011 | crizotinib 0.011 | [2] -0.002 | [3] -0.027 | duvelisib 0.067 | gandotinib 0.003 | tozasertib -0.054 | [4] -0.01 | doramapimod -0.003 | ispinesib 0.04 | bafetinib -0.013 | [5] -0.015 | nilotinib 0.001 | [6] -0.001 | dasatinib -0.047 | [7] -0.01 | [8] 0.044 | [9] 0.037 | tipifarnib 0.048 | mubritinib 0.046
